In patent US20070202047A1, “Polyamine-substituted ligands for use as contrast agents” (priority 2006, published 2007):
At least one compound was matched to its structure with a doubt left. Some results were stated once for a whole list of compounds, not compound by compound.

Tests used:
[1] = tested on: MH3924A Morris hepatoma cells; assay: Intracellular uptake of gadolinium complexes (ICP-MS); assay type: cell-based, rat; details: 24-h incubation, 1-10 μM
Experimental: (§1) Cell culture. B16 melanoma cells (mouse) and MH3924A Morris hepatoma cells (rat) were obtained from the German Cancer Research Center (DKFZ) tumor bank and grown at 37° C. as stock cultures in RPMI 1640 supplemented with 10% fetal calf serum and 1% glutamine as standard medium under a 5% CO2 atmosphere (all components: Pan Biotech GmbH, Aidenbach, Germany). For contrast agent uptake studies 10^6 cells were inoculated into 25 cm^2 culture flasks (BD Biosciences, Bedford, USA) and grown for 24 h in 10 mL of the standard culture medium. […] Afterwards the medium was removed, cells were trypsinated, washed twice, resuspended in culture medium and counted (typical yields: 3.5-6 million cells). […] After digestion the cells were washed twice with PBS, resuspended in culture medium and counted (typical yields: 6×10^5 cells per tube). The intracellular gadolinium content was determined by ICP-MS as described below.
(§2) ICP-MS. […] To each sample 100 μL of an aqueous solution of rhodium chloride (1 μg/mL) were added so that Rh-103 could be used as an internal quantification standard. […] The gadolinium concentrations were determined using standard curves created prior to cell analyses. For each uptake incubation condition triplicate cell samples were analyzed, and Gd content for each sample was recorded as the mean of two MS determinations. […]
(§3) Cell Uptake Studies. […] The gadolinium uptake was determined in triplicate. […]

B16 melanoma cells = assay: as above; assay type: cell-based, mouse
Experimental: as §1, §2, §3

[2] = Biodistribution in BALB/c nu/nu mice carrying B16 melanoma; assay type: in vivo, mouse; details: 1 h post injection, B16 melanoma-bearing mice
Experimental: Animal model. For in vivo tumor studies 3×10^6 B16 tumor cells were injected subcutaneously into the right thigh of male BALB/c nu/nu mice (Charles River, Sulzfeld, Germany) weighing 18 to 21 g. All animal experiments were performed in compliance with the German Animal Protection Laws (Permission 35-9185.81/G-7-03, Reg.-Praesidium, Karlsruhe, Germany).
Biodistribution data. At 10 days after tumor inoculation, when tumors had reached a diameter of ca. 7-8 mm, the biodistribution experiments were initiated. Each animal (18-21 g) was given an intravenous tail-vein injection of 975 μmol/kg Gadovist® (Schering, Berlin, Germany) or 1 μmol/kg of Gd-2.2. 1 h post-injection (p.i.), the animals were weighed, sacrificed by cervical dislocation, perfused and dissected. Organs or tissues were blotted dry and weighed. Samples containing the tumor or organs were digested with concentrated HNO3 (Superselect; Merck, Darmstadt, Germany) and H2O2 under microwave heating with a Mars 5 apparatus (CEM GmbH, Kamp-Lintfort, Germany). To each sample 100 μL of an aqueous solution of rhodium chloride (1 μg/mL) were added so that Rh-103 could be used as an internal quantification standard. […] The gadolinium concentrations were determined using standard curves created prior to tissue analyses. The results are expressed as nmol Gd/g tissue scaled on the dose of 100 μmol of the corresponding Gd complex.

Compound: CCCCCCCCCNC(=O)CN(CCN(CCN(CC(=O)[O-])CC(=O)NCCN(CC)CC)CC(=O)[O-])CC(=O)[O-].[Gd+3] [Gd-4.1]
- intracellular uptake (below ICP-MS detection limit) [1]: < 0.00002 fmol/cell

Compound: CCN(CC)CCNC(=O)CN(CCN(CCN(CC(=O)[O-])CC(=O)NCCN(CC)CC)CC(=O)[O-])CC(=O)[O-].[Gd+3] [Gd-2.1]
- calculated intracellular concentration (B16 melanoma cells; 24-h incubation at 10 μM (FIG. 2A)): 35-7.4
- intracellular uptake of gadolinium complex (B16 melanoma cells; B16 melanoma cells, 24-h incubation, 10 μM): 0.062-0.0129

Compound: O=C([O-])CN1CCN(CC(=O)[O-])CCN([C@H](CO)[C@H](O)CO)CCN(CC(=O)[O-])CC1.[Gd+3] (racemic) [Gadovist, gadobutrol, reference compound]
- clearance from the tumor [2]: completely cleared from the tumor
